# Test results: patent US20230212225A1, “PEPTIDE COMPOSTIONS AND METHODS FOR TREATING TAUOPATHIES” (AXOLTIS PHARMA, priority 2019, published 2023)
# Part of at least one peptide drawing is inferred or uncertain, most often the ends. Where a SMILES comes first, the peptide text is derived from it. Bridges are numbered along the chain shown (N, C = ends).
# Test system: Aβ25-35-induced short-term memory deficits
# Test: Late-stage efficacy: Y-maze with treatment started at D11
# Type: in vivo, mice
# Description: Seven days after ICV injection of Aβ25-35 peptide (D08), all animals were tested for spontaneous alternation performance in the Y-maze, an index of spatial working memory (short-term memory test). Each mouse was placed at the end of one arm and allowed to move freely through the maze during an 8 min session. An alternation is defined as entries into all three arms on consecutive occasions. The number of maximum alternations is therefore the total number of arm entries minus two and the percentage of alternation is calculated as (actual alternations / maximum alternations) x 100. This parameter includes the percentage of alternation (memory index) (Maurice et al., 1996, 1998; Meunier et al., 2006).
# The efficacy of NX210 and NX218 SCO-Spondin derived peptides was therefore assessed during this late-stage physiopathology setting. Specifically, the administrations of NX210, NX218 or vehicle were started at D11 and were repeated once a day until the end of the experiment.
# All animals were tested for spontaneous alternation performance in the Y-maze, an index of short-term memory (see Example 3 for method details) from D08 (i.e. pre-treatment values) and then once a week for three weeks (D15, D22, D29).
# [1] = D08, pre-treatment value, IP 2 mg/kg once a day started at D11
# [2] = D15, IP 2 mg/kg once a day started at D11
# [3] = D22, IP 2 mg/kg once a day started at D11
# [4] = D29, IP 2 mg/kg once a day started at D11
compound,measurement,setting,value
"N=C(N)NCCC[C@@H]1NC(=O)[C@H](CO)NC(=O)[C@@H](NC(=O)[C@H](CO)NC(=O)[C@H](CO)NC(=O)[C@H](Cc2c[nH]c3ccccc23)NC(=O)CNC(=O)[C@H](CO)NC(=O)[C@@H](N)Cc2c[nH]c3ccccc23)CSSC[C@@H](C(=O)NCC(=O)O)NC(=O)[C@H](CO)NC1=O [NX218, W-S-G-W-S-S-C-S-R-S-C-G] (H-WSGWSSCSRSCG-OH; disulfide 7-11; N-terminus and C-terminus assumed)",Y-maze (D08) % (Sc.Aβ / D11 vhc = 100),[1],58%
same,Y-maze (D08) Mean (percentage of alternation),[1],40.70%
same,"effect on short-term working memory deficits at D15, in words","D15, five daily administrations, 2 mg/kg started at D11",tendency to rescue
same,Y-maze (D15) % (Sc.Aβ / D11 vhc = 100),[2],73%
same,Y-maze (D15) Mean (percentage of alternation),[2],57.32%
same,"effect on working memory deficits at D22, in words","D22, 12 day-treatment, 2 mg/kg started at D11",significantly rescued
same,Y-maze (D22) % (Sc.Aβ / D11 vhc = 100),[3],82%
same,Y-maze (D22) Mean (percentage of alternation),[3],60.37%
same,"effect on memory deficits at D29, in words","D29, 19 day-treatment, 2 mg/kg started at D11",fully restored
same,Y-maze (D29) % (compared to Sham group),[4],91%
same,Y-maze (D29) Mean (percentage of alternation),[4],70.10%
